Experimental data reported in article PMC12431657, “Discovery and mechanistic insights of dibenzoylmethane as a broad spectrum inhibitor of coronavirus” (PLOS Pathogens, 2025).
Counter-ions that a name gives are not always drawn. Like-named read-outs stand apart in the source and are kept apart here. Screen size: about 3,300 compounds; about 60 (2%) showed an effect of 50% or more. The list shows a part of the results.

Tested on: HCoV-OC43
Design: species or system RD; HTS, protection from HCoV-OC43 induced cell death, luminescent cell viability (CellCounting-Lite 2.0), inhibition rate
Conditions: 24 h post infection, 1 h compound pre-incubation, 10 µM, inhibitor

| Compound | OC43 Inhibition rate | OC43 Inhibition rate (OC43 Inhibition rate, 24 h) |
| --- | --- | --- |
| CC1=C[C@]23C(=O)[C@@H](C=C4COC(C)(C)O[C@H]4C2(O)[C@H]1O)[C@H]1[C@@H](C[C@H]3C)C1(C)C (some centres unmarked) [Ingenol-5,20-acetonide] | -2.5% | – |
| CC(C)=CCC[C@@](C)(O)[C@H]1CC[C@]2(C)[C@@H]1[C@H](O)C[C@@H]1[C@@]3(C)CC[C@H](O)C(C)(C)[C@@H]3CC[C@]12C [(20R)-Protopanaxadiol] | -0.6% | – |
| OC[C@H]1O[C@@H](Oc2c(O)cc(O)cc2/C=C/c2ccc(O)cc2)[C@H](O)[C@@H](O)[C@@H]1O [2,3,5,4'-Tetrahydroxystilbene 2-O-β-D-glucoside] | -0.2% | – |
| CCCCC/C=C\C/C=C\C/C=C\CCCCC(=O)O [Gamma-Linolenic acid] | 0.4% | – |
| OCCc1ccccc1 [2-Phenylethanol] | 1.5% | – |
| C[S+](CC[C@H](N)C(=O)[O-])C[C@H]1O[C@@H](n2cnc3c(N)ncnc32)[C@H](O)[C@@H]1O (stereo partly drawn) [S-Adenosyl-L-methionine (tosylate)] | -3.4% | – |
| O=c1cc(-c2ccccc2)c2c(O)cc(O)cc2o1 [LC3-mHTT-IN-AN2] | -1.1% | – |
| COc1ccc(-c2cc(=O)c3c(O)cc(O[C@@H]4O[C@H](C(=O)O)[C@@H](O)[C@H](O)[C@H]4O)cc3o2)cc1O [DiosMetin 7-O-β-D-Glucuronide] | 1% | – |
| NCC(O)c1ccc(O)cc1 (centres unmarked) [Octopamine (hydrochloride)] | -0.1% | – |
| CC(C)=CCC[C@](C)(O)[C@H]1CC[C@]2(C)[C@@H]1[C@H](O)C[C@@H]1[C@@]3(C)CC[C@H](O)C(C)(C)[C@@H]3[C@@H](O)C[C@]12C [(20S)-Protopanaxatriol] | -0.3% | – |
| O=C(c1ccccc1)c1ccccc1 [Benzophenone] | -0.1% | – |
| C[C@@H]1CC[C@@]2(OC1)O[C@H]1C[C@H]3[C@@H]4CC=C5C[C@@H](O)CC[C@]5(C)[C@H]4CC[C@]3(C)[C@H]1[C@@H]2C [Diosgenin] | 0% | – |
| C=C[C@H]1CN2CC[C@H]1C[C@@H]2[C@@H](O)c1ccnc2ccc(OC)cc12 [Quinidine] | – | 39.6% |
| O=C(O)[C@H](O)Cc1ccc(O)c(O)c1 [Danshensu] | -0.5% | – |
| Cc1ccc(-c2ccccc2)cc1 [4-Methylbiphenyl] | 0.9% | – |
| COc1ccc2c(c1OC)C(OC)N(C)c1c-2ccc2cc3c(cc12)OCO3 (centres unmarked) [Angoline] | -15.2% | – |
| C[C@@]12C[C@@]3(O)O[C@@H](O1)[C@]1(COC(=O)c4ccccc4)[C@H]3C[C@@]12O[C@@H]1O[C@H](COC(=O)c2ccccc2)[C@@H](O)[C@H](O)[C@H]1O [Benzoylpaeoniflorin] | 0.2% | – |
| C=C[C@H]1[C@H](O[C@@H]2O[C@H](CO)[C@@H](O)[C@H](O)[C@H]2O)OC=C2C(=O)OCC[C@H]21 [Sweroside] | -1.8% | – |
| COc1cc(O)c(C(=O)/C=C/c2ccccc2)c(OC)c1 [Flavokawain B] | 58.3% | – |
| CC1CCC(C(C)C)C(O)C1 (racemic) [DL-Menthol] | -0.4% | – |
| CC(/C=C/C=C(\C)C(=O)O[C@@H]1O[C@H](CO[C@@H]2O[C@H](CO)[C@@H](O)[C@H](O)[C@H]2O)[C@@H](O)[C@H](O)[C@H]1O)=C\C=C\C=C(C)\C=C\C=C(/C)C(=O)O[C@@H]1O[C@H](CO[C@@H]2O[C@H](CO)[C@@H](O)[C@H](O)[C@H]2O)[C@@H](O)[C@H](O)[C@H]1O [Crocin] | 0% | – |

| Compound | OC43 Inhibition rate | OC43 Inhibition rate (OC43 Inhibition rate, 24 h) |
| --- | --- | --- |
| CC(O)(CC(=O)O)CC(=O)O [Meglutol] | -0.1% | – |
| O=C([O-])c1ccc[n+]([C@@H]2O[C@H](CO)[C@@H](O)[C@H]2O)c1 [Nicotinic acid riboside] | 0.2% | – |
| NC(CCCC(=O)O)C(=O)O (centres unmarked) [Aminoadipic acid] | 1.4% | – |
| NC(=O)c1ccc[n+]([C@@H]2O[C@H](CO)[C@@H](O)[C@H]2O)c1 [Nicotinamide riboside (chloride)] | 0.1% | – |
| NC[C@@H]1O[C@H](O[C@H]2[C@@H](O)[C@H](O[C@@H]3[C@@H](O)[C@H](N)C[C@H](N)[C@H]3O[C@H]3O[C@H](CN)[C@@H](O)[C@H](O)[C@H]3N)O[C@@H]2CO)[C@H](N)[C@@H](O)[C@@H]1O [Neomycin (sulfate)] | -1.5% | – |
| C/C1=C/CC[C@H](C)C(=O)C[C@@H](C(C)C)C(=O)C1 [Curdione] | 1.6% | – |
| O=C(O)Cc1cccc2ccccc12 [1-Naphthaleneacetic acid] | 0.7% | – |
| C=C(NC(=O)c1csc(-c2nc3c(cc2O)-c2nc(cs2)C(=O)N[C@@H]([C@@H](C)O)C(=O)N/C(=C/C)c2nc(cs2)C(=O)N[C@H]2C[C@H](O)C(=O)OCc4cccc5[nH]c(c(C)c45)C(=O)SC[C@H](NC(=O)c4csc2n4)c2nc-3cs2)n1)C(N)=O [Nosiheptide] | 15.6% | – |
| C[C@H](CO)C1=C(O)C(=O)c2c(ccc3c2CCCC3(C)C)C1=O [Neocryptotanshinone] | 2.7% | – |
| C/C=C/c1ccc(OC(C)=O)c(OC)c1 [Isoeugenol acetate] | 6.3% | – |
| C=CCC(C)C(=O)O (centres unmarked) [2-Methyl-4-pentenoic Acid] | -0.3% | – |
| CCOC(=O)CC(=O)C(C)(C)C [Ethyl pivaloylacetate] | 0% | – |
| C=C(CC[C@@H](C(=O)O)[C@H]1[C@H](O)C[C@@]2(C)C3=CC[C@@H](C(=C)C)[C@](C)(CCC(=O)O)C3=CC[C@]12C)C(C)C [Poricoic acid A] | 0.8% | – |
| O=C(O)CC(O)(CC(=O)O)C(=O)O [Sodium citrate (dihydrate)] | – | -0.7% |
| COc1ccc(CO)cc1OC [Veratryl alcohol] | 9.4% | – |
| C/C1=C\CCC2=C[C@@H](OC2=O)c2c(C)coc2C1 [Linderalactone] | -0.2% | – |
| CCCCCCCCCCCCCCCc1cc(O)cc(O)c1 [5-Pentadecylresorcinol] | 11.8% | – |
| C[C@H](CC[C@@H](O[C@@H]1O[C@H](CO[C@@H]2O[C@H](CO)[C@@H](O)[C@H](O)[C@H]2O)[C@@H](O)[C@H](O)[C@H]1O[C@@H]1O[C@H](CO)[C@@H](O)[C@H](O)[C@H]1O)C(C)(C)O)[C@H]1CC[C@@]2(C)[C@@H]3CC=C4[C@@H](CC[C@H](O[C@@H]5O[C@H](CO[C@@H]6O[C@H](CO)[C@@H](O)[C@H](O)[C@H]6O)[C@@H](O)[C@H](O)[C@H]5O)C4(C)C)[C@]3(C)C(=O)C[C@]12C [11-oxo-mogroside V] | 0% | – |
| Nc1ccn([C@@H]2O[C@H](COP(=O)(O)O)[C@@H](O)[C@H]2O)c(=O)n1 [Cytidine 5'-monophosphate] | -5.5% | – |
| C=C[C@H]1[C@H](O[C@@H]2O[C@H](CO)[C@@H](O)[C@H](O)[C@H]2OC(=O)c2c(O)cc(O)cc2-c2cccc(O)c2)OC=C2C(=O)OCC[C@H]21 [Amarogentin] | -2.6% | – |
| COc1c2ccoc2c(OC[C@H]2OC2(C)C)c2oc(=O)ccc12 [Byakangelicol] | -1.1% | – |

For reference, 3 of the compounds above.

| Compound | OC43 Inhibition rate | OC43 Inhibition rate (OC43 Inhibition rate, 24 h) |
| --- | --- | --- |
| C/C1=C\CCC2=C[C@@H](OC2=O)c2c(C)coc2C1 [Linderalactone] | -0.2% | – |
| CCCCCCCCCCCCCCCc1cc(O)cc(O)c1 [5-Pentadecylresorcinol] | 11.8% | – |
| C[C@H](CC[C@@H](O[C@@H]1O[C@H](CO[C@@H]2O[C@H](CO)[C@@H](O)[C@H](O)[C@H]2O)[C@@H](O)[C@H](O)[C@H]1O[C@@H]1O[C@H](CO)[C@@H](O)[C@H](O)[C@H]1O)C(C)(C)O)[C@H]1CC[C@@]2(C)[C@@H]3CC=C4[C@@H](CC[C@H](O[C@@H]5O[C@H](CO[C@@H]6O[C@H](CO)[C@@H](O)[C@H](O)[C@H]6O)[C@@H](O)[C@H](O)[C@H]5O)C4(C)C)[C@]3(C)C(=O)C[C@]12C [11-oxo-mogroside V] | 0% | – |

Later entries.

| Compound | OC43 Inhibition rate | OC43 Inhibition rate (OC43 Inhibition rate, 24 h) |
| --- | --- | --- |
| CCCCCCC(O)C(=O)O (centres unmarked) [2-Hydroxyoctanoic acid] | 6.7% | – |
| S=C=NCc1ccccc1 [Benzyl isothiocyanate] | 0.2% | – |
| CCCCCCCC=O [Octanal] | -0.1% | – |
| COc1cc(/C=C/C=O)ccc1O [Coniferaldehyde] | 0.7% | – |
| CCCCCC(C)C(=O)O (centres unmarked) [2-Methylheptanoic acid] | 0% | – |
| CCC(=O)C(=O)O [2-Oxobutanoic acid] | -0.3% | – |
| COc1cc([C@@H]2c3cc4c(cc3[C@@H]3OC[C@H]2[C@@H]3CO)OCO4)cc(OC)c1OC [Neoanhydropodophyllol] | -0.6% | – |
| C=C[C@H]1CN2CC[C@@]3(C(=O)Nc4ccccc43)[C@@H]2C[C@@H]1/C(=C\OC)C(=O)OC [Isocorynoxeine] | -0.3% | – |
| C=C[C@H]1[C@H](O[C@@H]2O[C@H](CO)[C@@H](O)[C@H](O)[C@H]2O)OC=C(C(=O)OC)[C@H]1C[C@@H]1c2cc(O)c(O)cc2CCN1C(C)=O [Ipecoside] | 1.4% | – |
| COc1ccc(-c2cc(=O)c3c(OC)cc(OC)cc3o2)cc1 [5,7,4'-Trimethoxyflavone] | 0.4% | – |
| Cc1c(=O)c(=O)c2c3c[nH]c4c(C)c(=O)c(=O)c(c5c[nH]c1c52)c43 [Melanin] | -0.2% | – |
| C[C@H](Cc1ccc(O)c(O)c1)[C@@H](C)Cc1ccc(O)c(O)c1 [Nordihydroguaiaretic acid] | -0.6% | – |
| C[C@H](O)[C@H](O)[C@H]1CNc2nc(N)[nH]c(=O)c2N1 [Tetrahydrobiopterin] | 0.1% | – |
| C[n+]1cccc(C(=O)[O-])c1 [Trigonelline] | – | 1.3% |
| CC(CCC(=O)O)CC(=O)O (centres unmarked) [3-Methyladipic acid] | -0.9% | – |
| CCCCCCCCC1=C(CCCCCCCC(=O)O)C1 [Sterculic acid] | -0.9% | – |
| O=C(O)c1cc(O)ccc1O [2,5-Dihydroxybenzoic acid] | 1.4% | – |
| COc1cc2ccc(=O)oc2cc1OC [Scoparone] | 0.8% | – |
| O=C(/C=C/c1ccc(O)c(O)c1)c1ccc(O)c(O)c1O [Okanin] | 22% | – |
| C[C@H]1[C@H]2CC[C@H]3[C@@H]4CC=C5C[C@@H](N(C)C)CC[C@]5(C)[C@H]4CC[C@]23CN1C [Conessine] | 52.4% | – |
